Measured values: paper doi:10.1101/2023.01.12.523815
Results are given in words; binding and its absence hold for the method and conditions named. For part of these data: In cells and extracts the contact can be indirect. Some entries that bind do so weakly or less than the wild type. Where a sequence is shown, tags or fusion partners need not be part of it.

T1: mCherry-LacR-RIF1^N (residues 1-967) (human) (UniProt Q5UIP0)
T1 sequence: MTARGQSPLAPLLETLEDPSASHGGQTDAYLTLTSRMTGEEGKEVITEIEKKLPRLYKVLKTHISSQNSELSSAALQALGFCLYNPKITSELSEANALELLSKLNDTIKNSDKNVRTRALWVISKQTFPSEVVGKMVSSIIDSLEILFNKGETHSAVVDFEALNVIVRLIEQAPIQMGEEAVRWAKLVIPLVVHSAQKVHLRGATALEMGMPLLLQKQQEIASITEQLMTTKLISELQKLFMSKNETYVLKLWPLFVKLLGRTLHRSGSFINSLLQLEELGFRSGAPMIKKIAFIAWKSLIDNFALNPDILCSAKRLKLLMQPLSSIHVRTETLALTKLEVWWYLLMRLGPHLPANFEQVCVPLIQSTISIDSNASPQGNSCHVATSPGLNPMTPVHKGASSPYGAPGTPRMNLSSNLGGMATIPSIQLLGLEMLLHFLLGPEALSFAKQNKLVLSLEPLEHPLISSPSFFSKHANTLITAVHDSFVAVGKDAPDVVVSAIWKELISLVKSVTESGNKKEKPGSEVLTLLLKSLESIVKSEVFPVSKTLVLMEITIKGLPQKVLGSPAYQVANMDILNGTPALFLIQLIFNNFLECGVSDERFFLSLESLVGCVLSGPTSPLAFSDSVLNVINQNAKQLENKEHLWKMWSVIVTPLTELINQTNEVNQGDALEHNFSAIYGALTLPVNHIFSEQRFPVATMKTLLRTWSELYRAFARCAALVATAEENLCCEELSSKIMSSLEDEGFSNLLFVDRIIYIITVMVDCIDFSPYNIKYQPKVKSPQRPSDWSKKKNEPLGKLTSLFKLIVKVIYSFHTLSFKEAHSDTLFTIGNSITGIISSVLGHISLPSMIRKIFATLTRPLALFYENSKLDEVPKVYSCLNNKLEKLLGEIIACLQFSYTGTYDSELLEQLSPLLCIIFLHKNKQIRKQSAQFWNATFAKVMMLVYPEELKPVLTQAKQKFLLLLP

T2: Strep-RIF1 (residues 1-980) R36A (human) (UniProt Q5UIP0)
T2 sequence: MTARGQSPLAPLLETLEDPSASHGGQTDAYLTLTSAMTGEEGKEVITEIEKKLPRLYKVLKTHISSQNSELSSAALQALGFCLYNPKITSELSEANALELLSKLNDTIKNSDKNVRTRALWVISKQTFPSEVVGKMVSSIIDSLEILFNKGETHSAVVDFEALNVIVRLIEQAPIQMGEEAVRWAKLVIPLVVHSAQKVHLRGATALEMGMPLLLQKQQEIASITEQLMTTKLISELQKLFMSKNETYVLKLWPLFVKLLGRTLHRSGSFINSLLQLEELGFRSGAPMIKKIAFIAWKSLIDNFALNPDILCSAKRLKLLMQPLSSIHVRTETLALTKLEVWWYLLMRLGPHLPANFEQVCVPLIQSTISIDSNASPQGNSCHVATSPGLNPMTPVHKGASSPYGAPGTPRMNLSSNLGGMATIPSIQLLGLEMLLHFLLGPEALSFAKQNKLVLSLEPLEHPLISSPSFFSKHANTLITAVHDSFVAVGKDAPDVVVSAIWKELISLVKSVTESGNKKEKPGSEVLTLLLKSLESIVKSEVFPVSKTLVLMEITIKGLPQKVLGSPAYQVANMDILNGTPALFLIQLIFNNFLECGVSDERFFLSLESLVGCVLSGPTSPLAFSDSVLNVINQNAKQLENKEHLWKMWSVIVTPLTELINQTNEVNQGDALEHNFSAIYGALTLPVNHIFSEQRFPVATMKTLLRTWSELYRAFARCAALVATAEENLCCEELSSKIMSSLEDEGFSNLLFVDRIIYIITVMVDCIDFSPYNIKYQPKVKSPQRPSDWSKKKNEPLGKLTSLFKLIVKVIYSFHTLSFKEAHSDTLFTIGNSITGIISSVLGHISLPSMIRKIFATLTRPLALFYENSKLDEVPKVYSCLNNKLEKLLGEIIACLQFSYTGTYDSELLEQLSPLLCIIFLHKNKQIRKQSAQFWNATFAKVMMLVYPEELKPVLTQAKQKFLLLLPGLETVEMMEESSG

T3: Strep-tagged human RIF1^N (residues 1-980) (human) (UniProt Q5UIP0)
T3 sequence: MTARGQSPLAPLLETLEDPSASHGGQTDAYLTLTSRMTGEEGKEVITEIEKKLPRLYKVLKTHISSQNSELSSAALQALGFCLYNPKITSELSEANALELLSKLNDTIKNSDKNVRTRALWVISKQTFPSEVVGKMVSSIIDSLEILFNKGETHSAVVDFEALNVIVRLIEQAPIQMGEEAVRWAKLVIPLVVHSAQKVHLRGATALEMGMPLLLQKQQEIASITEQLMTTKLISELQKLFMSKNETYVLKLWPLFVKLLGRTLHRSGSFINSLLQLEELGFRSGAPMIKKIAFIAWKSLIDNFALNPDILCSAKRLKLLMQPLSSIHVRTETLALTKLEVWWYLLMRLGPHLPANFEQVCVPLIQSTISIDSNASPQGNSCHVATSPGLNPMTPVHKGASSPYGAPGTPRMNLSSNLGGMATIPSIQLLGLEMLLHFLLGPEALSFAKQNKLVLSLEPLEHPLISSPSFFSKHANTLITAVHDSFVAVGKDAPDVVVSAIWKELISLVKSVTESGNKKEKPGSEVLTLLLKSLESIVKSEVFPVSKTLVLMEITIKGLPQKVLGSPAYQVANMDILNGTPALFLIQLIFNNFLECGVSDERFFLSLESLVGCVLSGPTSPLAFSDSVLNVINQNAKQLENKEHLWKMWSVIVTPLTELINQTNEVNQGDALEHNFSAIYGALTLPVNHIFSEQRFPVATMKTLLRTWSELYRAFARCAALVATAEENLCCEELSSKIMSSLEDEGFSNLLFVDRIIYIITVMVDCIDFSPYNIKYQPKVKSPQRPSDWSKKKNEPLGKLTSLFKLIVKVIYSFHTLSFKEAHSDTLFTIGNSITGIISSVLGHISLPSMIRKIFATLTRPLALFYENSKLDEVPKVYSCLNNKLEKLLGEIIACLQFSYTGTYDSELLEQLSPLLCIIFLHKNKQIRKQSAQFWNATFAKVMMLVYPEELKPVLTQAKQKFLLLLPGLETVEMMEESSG


What follows are binders tested against T1, mCherry-LacR-RIF1^N (residues 1-967) (human) (assay: LacR/LacO chromatin recruitment assay).

Binder | binding
eGFP-SHLD3^N (residues 2-125) (domain or fragment, UniProt Q6ZNX1 2-125) TTEVILHYRPCESDPTQLPKIAEKAIQDFPTRPLSRFIPWFPYDGSKLPLRPKRSPPVISEEAAEDVKQYLTISEHDAKSHSYDCTVDLLEFQPSLKKQHLTWSHTLKEQTNSGNLGKQSEKGK | no binding
eGFP-SHLD3^C (residues 126-250) R166A (domain or fragment, UniProt Q6ZNX1 126-250) QHKRRSWSISLPSNNCTKNVSPLSKKLQDSLKALNLHSLYAARWTIEHTICNSQTLEDIWTKLNQIIRHNELPSCNATIQRHLGQIWVFCDIMYCEYVGSLLKGRLALTGKINLFVHKYGVIFSM | no binding
eGFP-SHLD3^C (residues 126-250) D216A (domain or fragment, UniProt Q6ZNX1 126-250) QHKRRSWSISLPSNNCTKNVSPLSKKLQDSLKALNLHSLYRARWTIEHTICNSQTLEDIWTKLNQIIRHNELPSCNATIQRHLGQIWVFCAIMYCEYVGSLLKGRLALTGKINLFVHKYGVIFSM | binds
eGFP-SHLD3^C (residues 126-250) N201A (domain or fragment, UniProt Q6ZNX1 126-250) QHKRRSWSISLPSNNCTKNVSPLSKKLQDSLKALNLHSLYRARWTIEHTICNSQTLEDIWTKLNQIIRHNELPSCAATIQRHLGQIWVFCDIMYCEYVGSLLKGRLALTGKINLFVHKYGVIFSM | binds

Continued, values first:

binding | Binder
binds | eGFP-SHLD3^C (residues 126-250) S131A (domain or fragment, UniProt Q6ZNX1 126-250) QHKRRAWSISLPSNNCTKNVSPLSKKLQDSLKALNLHSLYRARWTIEHTICNSQTLEDIWTKLNQIIRHNELPSCNATIQRHLGQIWVFCDIMYCEYVGSLLKGRLALTGKINLFVHKYGVIFSM
binds | eGFP-SHLD3^C (residues 126-250) (domain or fragment, UniProt Q6ZNX1 126-250) QHKRRSWSISLPSNNCTKNVSPLSKKLQDSLKALNLHSLYRARWTIEHTICNSQTLEDIWTKLNQIIRHNELPSCNATIQRHLGQIWVFCDIMYCEYVGSLLKGRLALTGKINLFVHKYGVIFSM
no binding | eGFP-SHLD3^C (residues 126-250) W132A (domain or fragment, UniProt Q6ZNX1 126-250) QHKRRSASISLPSNNCTKNVSPLSKKLQDSLKALNLHSLYRARWTIEHTICNSQTLEDIWTKLNQIIRHNELPSCNATIQRHLGQIWVFCDIMYCEYVGSLLKGRLALTGKINLFVHKYGVIFSM

Each binder was assayed against T2, Strep-RIF1 (residues 1-980) R36A (human) (assay: co-IP + pull-down).

binding | Binder
binds | FLAG-SHLD3^C (residues 126-250) (domain or fragment, UniProt Q6ZNX1 126-250) QHKRRSWSISLPSNNCTKNVSPLSKKLQDSLKALNLHSLYRARWTIEHTICNSQTLEDIWTKLNQIIRHNELPSCNATIQRHLGQIWVFCDIMYCEYVGSLLKGRLALTGKINLFVHKYGVIFSM

The binders below were run against T3, Strep-tagged human RIF1^N (residues 1-980) (human) (assay: co-IP + pull-down).

Binder | binding
FLAG-SHLD3^C (residues 126-250) (domain or fragment, UniProt Q6ZNX1 126-250) QHKRRSWSISLPSNNCTKNVSPLSKKLQDSLKALNLHSLYRARWTIEHTICNSQTLEDIWTKLNQIIRHNELPSCNATIQRHLGQIWVFCDIMYCEYVGSLLKGRLALTGKINLFVHKYGVIFSM | binds
FLAG-SHLD3^C (residues 126-250) R166A (domain or fragment, UniProt Q6ZNX1 126-250) QHKRRSWSISLPSNNCTKNVSPLSKKLQDSLKALNLHSLYAARWTIEHTICNSQTLEDIWTKLNQIIRHNELPSCNATIQRHLGQIWVFCDIMYCEYVGSLLKGRLALTGKINLFVHKYGVIFSM | no binding
FLAG-SHLD3^C (residues 126-250) D216A (domain or fragment, UniProt Q6ZNX1 126-250) QHKRRSWSISLPSNNCTKNVSPLSKKLQDSLKALNLHSLYRARWTIEHTICNSQTLEDIWTKLNQIIRHNELPSCNATIQRHLGQIWVFCAIMYCEYVGSLLKGRLALTGKINLFVHKYGVIFSM | binds
FLAG-SHLD3^C (residues 126-250) N201A (domain or fragment, UniProt Q6ZNX1 126-250) QHKRRSWSISLPSNNCTKNVSPLSKKLQDSLKALNLHSLYRARWTIEHTICNSQTLEDIWTKLNQIIRHNELPSCAATIQRHLGQIWVFCDIMYCEYVGSLLKGRLALTGKINLFVHKYGVIFSM | binds
FLAG-SHLD3 (full-length) (protein, UniProt Q6ZNX1 1-250) MTTEVILHYRPCESDPTQLPKIAEKAIQDFPTRPLSRFIPWFPYDGSKLPLRPKRSPPVISEEAAEDVKQYLTISEHDAKSHSYDCTVDLLEFQPSLKKQHLTWSHTLKEQTNSGNLGKQSEKGKQHKRRSWSISLPSNNCTKNVSPLSKKLQDSLKALNLHSLYRARWTIEHTICNSQTLEDIWTKLNQIIRHNELPSCNATIQRHLGQIWVFCDIMYCEYVGSLLKGRLALTGKINLFVHKYGVIFSM | binds

The next lines start with the values.

binding | Binder
binds | FLAG-SHLD3^C (residues 126-250) W132A (domain or fragment, UniProt Q6ZNX1 126-250) QHKRRSASISLPSNNCTKNVSPLSKKLQDSLKALNLHSLYRARWTIEHTICNSQTLEDIWTKLNQIIRHNELPSCNATIQRHLGQIWVFCDIMYCEYVGSLLKGRLALTGKINLFVHKYGVIFSM
binds | FLAG-SHLD3^C (residues 126-250) S131A (domain or fragment, UniProt Q6ZNX1 126-250) QHKRRAWSISLPSNNCTKNVSPLSKKLQDSLKALNLHSLYRARWTIEHTICNSQTLEDIWTKLNQIIRHNELPSCNATIQRHLGQIWVFCDIMYCEYVGSLLKGRLALTGKINLFVHKYGVIFSM
